From article PMC11472053, “Structural basis of DNA recognition by BEN domain proteins reveals a role for oligomerization in unmethylated DNA selection by BANP” (Nucleic Acids Research, 2024)

Key:
[1] = biological target: T1, BANP full-length WT (human) (UniProt Q8N9N5); experiment: EMSA; details: EMSA: 20 mM Tris pH 7.0, 200 mM NaCl, 2 mM DTT, 4 C, 1.2% agarose in TAE, recombinant protein, residues 1-519, protein details: His-SUMO or His-MBP, cleaved
T1 sequence (looked up): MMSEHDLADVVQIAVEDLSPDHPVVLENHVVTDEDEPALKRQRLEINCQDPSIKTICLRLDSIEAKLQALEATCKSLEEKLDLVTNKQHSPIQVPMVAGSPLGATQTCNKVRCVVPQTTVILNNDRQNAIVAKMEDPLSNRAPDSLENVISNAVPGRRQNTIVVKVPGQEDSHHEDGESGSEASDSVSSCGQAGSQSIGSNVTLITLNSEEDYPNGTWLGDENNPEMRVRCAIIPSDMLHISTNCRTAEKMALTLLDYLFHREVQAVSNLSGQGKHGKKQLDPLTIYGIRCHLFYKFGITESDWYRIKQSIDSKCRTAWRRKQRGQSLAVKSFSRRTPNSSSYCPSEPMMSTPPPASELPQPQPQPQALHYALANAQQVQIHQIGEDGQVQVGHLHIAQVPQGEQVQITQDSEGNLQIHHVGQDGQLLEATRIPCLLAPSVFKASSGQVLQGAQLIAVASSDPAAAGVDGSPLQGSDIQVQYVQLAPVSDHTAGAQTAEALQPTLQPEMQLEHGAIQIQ

[2] = biological target: T2, NACC1 BEN R468A (human) (UniProt Q96RE7); experiment: ITC; details: Kd N.A., text: <5% of WT affinity; ITC: 20 mM Tris pH 7.5, 200 mM NaCl, 2 mM beta-mercaptoethanol, 20 C; recombinant protein; residues 341-477; protein details: His-SUMO or His-MBP, cleaved
T2 sequence (looked up): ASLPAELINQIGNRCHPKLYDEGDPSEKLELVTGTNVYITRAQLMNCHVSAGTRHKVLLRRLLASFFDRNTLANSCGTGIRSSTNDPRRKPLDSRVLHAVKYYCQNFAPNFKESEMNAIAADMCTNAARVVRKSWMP

ATCTCGCGAGAT (double strand) [12-CGCG]
binding result [1]: binds

ATCTCGCGAGAT (double strand) [12-mCGCG]
binding result ([1]; 5-methyl-C at position 5 of each strand (palindrome; called hemi-methylated, one CpG methylated)): binds more weakly

ATTACATGTAAT (double strand) [12-CATG]
binding result [2]: binds more weakly

Weaker means in comparison with the reference protein, sequence or condition of that experiment. Where a protein sequence is shown, tags need not be part of it. For part of these data: The exact form of at least one protein or probe is not confirmed. For part of these data: At least one verdict was read from the data and is not stated in words by the source.
